Data as given in publication PMC13647419.
No constants are given. Whether binding was seen depends on the method and setting. Some results given as binding are weak or reduced against the parent protein; the word gives no strength.

Chains of the proteins cited; added tags and fusions are not shown. Residues count along the entry.
UniProt Q01299, residues 777-1128: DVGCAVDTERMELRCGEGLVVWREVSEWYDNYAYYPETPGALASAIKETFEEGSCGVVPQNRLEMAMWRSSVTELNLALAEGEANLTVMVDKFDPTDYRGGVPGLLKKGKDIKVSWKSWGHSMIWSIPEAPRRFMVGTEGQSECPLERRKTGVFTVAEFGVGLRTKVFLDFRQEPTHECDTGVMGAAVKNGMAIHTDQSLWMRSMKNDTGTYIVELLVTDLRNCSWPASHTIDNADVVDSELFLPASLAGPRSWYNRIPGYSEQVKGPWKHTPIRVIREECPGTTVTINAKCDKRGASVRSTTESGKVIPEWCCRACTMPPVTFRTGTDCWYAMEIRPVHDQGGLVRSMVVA

Target: T1, recombinant human junctional adhesion molecule A (JAM-A) (human) (UniProt Q9Y624)
T1 sequence: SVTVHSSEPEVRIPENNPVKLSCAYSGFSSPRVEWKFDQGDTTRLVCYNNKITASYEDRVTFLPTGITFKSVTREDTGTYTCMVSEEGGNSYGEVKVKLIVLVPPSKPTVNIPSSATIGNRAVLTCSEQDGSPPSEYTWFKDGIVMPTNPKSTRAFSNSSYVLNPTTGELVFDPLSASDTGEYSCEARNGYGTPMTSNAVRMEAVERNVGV
Experiment: ELISA; both purified

Q: For “TBEV Hypr NS1 produced in mammalian HEK293 cells (Native Antigen) (from UniProt Q01299 777-1128)”, which binding is on record?
A: binds
